Experimental data reported in patent US20260165325A1, “NEW SUBSTITUTED TETRAHYDROBENZOXAZEPINE” (BASF SE, priority 2022, published 2026).
Some results were stated once for a whole list of compounds, not compound by compound.

Legend:
[1] = system: Botrytis cinerea; assay: Activity against the grey mold Botrytis cinerea in the microtiterplate test; assay type: cell-based; settings: 31 ppm active substance; microtiter plate
[2] = system: Botrytis cinerea; assay: Preventative fungicidal control of Botrytis cinerea on leaves of green pepper; assay type: in vivo; settings: 250 ppm spray to run-off; inoculated next day; assessed after 5 days; untreated plants 90% infected
[3] = system: Sclerotinia sclerotiorum; assay: Preventative fungicidal control of white mold on soybeans caused by Sclerotinia sclerotiorum; assay type: in vivo; settings: 250 ppm spray to run-off, assessed after 14 days, untreated plants 100% infected
[4] = system: Botrytis cinerea; assay: Long lasting control of Botrytis cinerea on leaves of green pepper; assay type: in vivo; settings: 125 ppm spray to run-off; inoculated after 7 days; assessed after 5 days; untreated plants 90% infected

Cc1cc(C2NC3(CC3)COc3c(F)cccc32)cnc1C(F)F (stereo not shown) [Ex-4]
growth of the pathogen [1]: ≤ 1% | growth of the pathogen (% diseased leaf area) [2]: at most 11% | growth of the pathogen (% diseased leaf area) [3]: at most 14% | growth of the pathogen (% diseased leaf area) [4]: at most 15%
